These are yes or no findings as the source states them, for the method shown. In cells and extracts the contact can be indirect. Some results given as binding are weak or reduced against the parent protein; the word gives no strength.
Assays:
SOX2-HA (human) = SOX2-HA (human) (UniProt P48431); assay: co-IP
Flag-USP9x = Flag-USP9x (UniProt Q93008); assay: co-IP

By UniProt entry, the sequences of proteins in these tests, tags left out.
UniProt P48431: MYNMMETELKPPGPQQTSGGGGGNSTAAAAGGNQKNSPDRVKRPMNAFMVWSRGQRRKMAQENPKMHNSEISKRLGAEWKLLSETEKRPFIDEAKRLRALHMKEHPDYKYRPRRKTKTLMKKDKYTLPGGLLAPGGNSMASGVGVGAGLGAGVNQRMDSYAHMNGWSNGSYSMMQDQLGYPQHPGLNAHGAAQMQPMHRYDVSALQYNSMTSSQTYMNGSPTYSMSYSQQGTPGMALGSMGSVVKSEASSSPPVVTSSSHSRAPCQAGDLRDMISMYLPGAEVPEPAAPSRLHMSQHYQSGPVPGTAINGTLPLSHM
UniProt Q93008: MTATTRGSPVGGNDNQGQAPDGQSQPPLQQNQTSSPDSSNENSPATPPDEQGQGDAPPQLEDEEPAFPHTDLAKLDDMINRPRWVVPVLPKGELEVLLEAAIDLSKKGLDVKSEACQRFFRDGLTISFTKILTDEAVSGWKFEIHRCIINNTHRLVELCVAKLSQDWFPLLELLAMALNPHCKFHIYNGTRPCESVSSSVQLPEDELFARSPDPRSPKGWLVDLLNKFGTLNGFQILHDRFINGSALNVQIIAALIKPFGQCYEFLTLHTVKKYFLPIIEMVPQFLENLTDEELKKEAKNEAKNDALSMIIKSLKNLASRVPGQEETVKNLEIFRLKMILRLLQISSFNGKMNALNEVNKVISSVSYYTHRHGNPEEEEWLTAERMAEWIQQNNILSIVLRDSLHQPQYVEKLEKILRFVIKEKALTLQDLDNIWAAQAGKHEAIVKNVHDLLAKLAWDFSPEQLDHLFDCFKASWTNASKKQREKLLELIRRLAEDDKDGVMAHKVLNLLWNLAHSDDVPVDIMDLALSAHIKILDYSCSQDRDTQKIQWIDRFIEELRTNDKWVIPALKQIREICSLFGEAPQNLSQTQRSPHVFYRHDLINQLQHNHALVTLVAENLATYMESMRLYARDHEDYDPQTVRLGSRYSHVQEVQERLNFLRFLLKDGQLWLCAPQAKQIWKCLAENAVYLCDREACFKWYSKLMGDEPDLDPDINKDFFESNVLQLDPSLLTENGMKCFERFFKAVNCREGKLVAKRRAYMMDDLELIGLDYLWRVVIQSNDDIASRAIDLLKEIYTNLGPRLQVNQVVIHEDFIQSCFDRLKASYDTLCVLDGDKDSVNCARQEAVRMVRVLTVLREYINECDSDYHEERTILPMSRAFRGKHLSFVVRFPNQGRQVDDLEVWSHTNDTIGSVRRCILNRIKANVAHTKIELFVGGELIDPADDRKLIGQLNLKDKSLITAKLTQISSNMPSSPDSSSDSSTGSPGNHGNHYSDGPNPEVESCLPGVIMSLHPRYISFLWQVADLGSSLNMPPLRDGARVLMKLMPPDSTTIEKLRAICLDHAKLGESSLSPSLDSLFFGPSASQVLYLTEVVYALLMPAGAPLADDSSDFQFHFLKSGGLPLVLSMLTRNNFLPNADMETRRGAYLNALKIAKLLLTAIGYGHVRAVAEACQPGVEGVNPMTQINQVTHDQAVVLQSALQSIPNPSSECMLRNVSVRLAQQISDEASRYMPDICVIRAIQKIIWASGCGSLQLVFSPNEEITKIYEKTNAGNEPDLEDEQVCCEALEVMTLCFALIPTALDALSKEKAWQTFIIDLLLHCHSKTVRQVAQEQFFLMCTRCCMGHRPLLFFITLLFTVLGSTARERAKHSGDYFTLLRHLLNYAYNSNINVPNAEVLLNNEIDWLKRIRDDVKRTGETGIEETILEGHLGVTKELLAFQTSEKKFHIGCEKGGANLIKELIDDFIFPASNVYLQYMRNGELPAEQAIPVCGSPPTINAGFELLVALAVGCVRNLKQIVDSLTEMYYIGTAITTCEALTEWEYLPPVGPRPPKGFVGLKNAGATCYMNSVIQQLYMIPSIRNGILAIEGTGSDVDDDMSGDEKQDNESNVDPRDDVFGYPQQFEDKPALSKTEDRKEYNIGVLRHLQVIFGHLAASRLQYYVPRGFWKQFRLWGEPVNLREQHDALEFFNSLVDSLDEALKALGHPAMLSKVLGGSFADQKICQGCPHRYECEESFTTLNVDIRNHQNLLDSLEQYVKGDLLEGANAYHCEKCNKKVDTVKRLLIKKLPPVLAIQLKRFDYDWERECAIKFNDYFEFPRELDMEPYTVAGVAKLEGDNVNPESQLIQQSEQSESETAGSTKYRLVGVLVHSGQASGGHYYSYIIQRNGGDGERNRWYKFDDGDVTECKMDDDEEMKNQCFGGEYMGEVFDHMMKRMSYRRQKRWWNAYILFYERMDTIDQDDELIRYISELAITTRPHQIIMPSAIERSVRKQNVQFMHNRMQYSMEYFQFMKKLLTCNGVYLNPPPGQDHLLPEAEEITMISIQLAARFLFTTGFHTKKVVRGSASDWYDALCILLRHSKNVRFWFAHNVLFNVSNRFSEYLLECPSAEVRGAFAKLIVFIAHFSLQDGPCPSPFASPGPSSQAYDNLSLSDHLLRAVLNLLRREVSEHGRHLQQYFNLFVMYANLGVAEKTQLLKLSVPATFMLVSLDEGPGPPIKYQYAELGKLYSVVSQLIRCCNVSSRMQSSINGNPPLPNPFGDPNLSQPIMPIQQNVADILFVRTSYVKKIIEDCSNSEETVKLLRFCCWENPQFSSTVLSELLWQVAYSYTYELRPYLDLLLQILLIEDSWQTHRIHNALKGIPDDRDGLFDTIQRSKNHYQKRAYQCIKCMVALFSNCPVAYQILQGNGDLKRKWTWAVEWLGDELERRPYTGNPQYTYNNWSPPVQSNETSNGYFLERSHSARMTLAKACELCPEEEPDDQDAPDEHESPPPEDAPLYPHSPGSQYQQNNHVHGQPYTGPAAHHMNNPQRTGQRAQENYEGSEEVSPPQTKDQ

## Flag-USP9x (from UniProt Q93008 1-2554) (enzyme)
SOX2-HA (human)
  binding: binds

## SOX2-HA (from UniProt P48431 1-317)
Flag-USP9x
  binding: binds
